Experimental data published in PubChem BioAssay AID2685 (National Center for Advancing Translational Sciences (NCATS), 2010).
The list shows a part of the results. Further columns of the screen follow, without active or inactive calls. The list favours compounds with an active or inconclusive main result. The note in brackets gives the kind of curve behind each potency; many fits are weak.

Assay: qHTS Assay for Lipid Storage Modulators in Drosophila S3 Cells;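 for cell number change: cells counted by Cell Tracker Red CMTPX staining in the red channel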
Details: BODIPY lipid droplet fluorescence, 18-24 h; for cell number change: measured here: cell count max response, cells fed with added oleic acid
Method in brief: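 Drosophila S3 cells got compounds at several concentrations plus oleic acid (400 uM solution). Laser-scanning cytometry with 488 nm excitation read lipid droplets at 500-530 nm and cells at 575-640 nm. Percent activity was relative to 20 uM Triacsin C.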

[1] = measured here: lipid fluorescence (Fed channel) AC50, cells fed with added oleic acid
[2] = measured here: cell number channel AC50, cells fed with added oleic acid

| SMILES | AC50 [1] | cell number change [%] | AC50 [2] |
| --- | --- | --- | --- |
| Cc1cc2c(=O)n(CC(=O)N3CCN(c4ccccc4)CC3)cnc2s1 | 0.58 µM [falling, single point] | – | – |
| O=C(COC(=O)/C=C/c1cccc(F)c1)Nc1ccccc1 | – | 131 | 29.1 µM [rising, partial curve, poor fit] |
| COc1ccccc1C(=O)Nc1ccc2c(c1)nc1n2CCN(C2CCCCC2)C1 | 2.31 µM [falling, partial curve] | -18.7 | – |
| C=CCC1(CC=C)CCCN1C(=O)c1cc(COc2ccc(C)nc2)on1 | 29.1 µM [falling, single point] | -8.87 | – |
| C/C(=N\Nc1nc(-c2ccccc2)cs1)c1cccs1 | 0.366 µM [rising, partial curve, poor fit] | -50 | 3.66 µM [falling, full curve, poor fit] |
| O=P(c1ccccc1)(c1ccccc1)N(c1ccccc1)c1ccccc1 | 29.1 µM [rising, single point] | -3.01 | – |
| CC(C)NC(=O)c1ccc(NC(=O)CC2SC(N3CCCC3)=NC2=O)cc1 (stereo not given) | 18.4 µM [falling, single point] | -53.7 | 18.4 µM [falling, single point] |
| COC(=O)c1ccc(NC(=O)N2CCOCC2)cc1 | 1.16 µM [falling, full curve] | – | 3.26 µM [falling, partial curve] |
| CCn1c(SCC(=O)OCc2ccccc2)nc2c1c(=O)n(C)c(=O)n2C | – | -45.5 | 29.1 µM [falling, single point] |
| CC1CCCN(C(=O)C2CCN(CCCc3ccccc3)CC2)C1 (stereo not given) | – | -2.46 | – |
| COc1ccc(OC)c(NC(=O)C2CC2c2ccccc2)c1 (stereo not given) | – | 9.85 | – |
| Cc1ccc(N2C(=O)c3ccccc3C2Nc2ccc(S(=O)(=O)N3CCCCC3)cc2)nc1 (stereo not given) | – | -8.54 | – |
| O=C1CC(Nc2cc(=O)[nH]c(=O)[nH]2)C(=O)N1c1ccccc1Cl (stereo not given) | 2.06 µM [falling, full curve] | -25.5 | 2.59 µM [falling, full curve, poor fit] |
| COc1ccc(-c2[nH]ncc2C2N=C(N)Nc3nc4ccccc4n32)cc1 (stereo not given) | 11.6 µM [rising, single point] | 25.8 | – |
| COc1cccc(CNC(=O)CCC2CCCN(C(=O)c3cc4ccccc4o3)C2)c1 (stereo not given) | – | -42.9 | 29.1 µM [falling, single point] |
| O=C(c1cc2cc([N+](=O)[O-])ccc2s1)N1CCCCC1 | – | -12.6 | 1.03 µM [rising, full curve] |
| CC1=C(C(=O)OCC2CCCO2)C(c2ccsc2)C2=C(CC(C)(C)CC2=O)N1 (stereo not given) | 29.1 µM [rising, single point] | 24.2 | – |
| O=C(COC(=O)c1cncc(Br)c1)NC1CCCCCC1 | 0.259 µM [falling, partial curve, poor fit] | -9.77 | – |
| CCOCCn1c(CN2CCN(C(c3ccccc3)c3ccccc3)CC2)nc2c1c(=O)n(C)c(=O)n2C | 3.66 µM [rising, full curve, poor fit] | 14.4 | – |
| O=C(NC1CCN(C(=O)Nc2ccc(F)cc2)CC1)c1cccc(F)c1 | 16.4 µM [rising, partial curve] | 13.5 | – |

| SMILES | AC50 [1] | cell number change [%] | AC50 [2] |
| --- | --- | --- | --- |
| Cc1cccc(Nc2nc(-c3ccccc3)cs2)n1 | – | -25.9 | – |
| Cc1ccc(S(=O)(=O)/N=C(\Nc2cccc(C)c2)Nc2nc(C)cc(C)n2)cc1 | – | 6.59 | – |
| CN(C)C(=O)N1CCC(C(=O)NCC2CCCO2)CC1 (stereo not given) | 20.6 µM [falling, partial curve] | -72.4 | 23.1 µM [falling, single point] |
| Cc1cc(C)nc(NS(=O)(=O)c2ccc(Br)s2)c1 | 0.92 µM [rising, full curve, poor fit] | -4.12 | 0.0058 µM [falling, full curve, poor fit] |
| O=C(Cc1ccc(Cl)cc1)Nc1ccc(S(=O)(=O)Nc2cnc3ccccc3n2)cc1 | 29.1 µM [falling, single point] | -52.4 | 29.1 µM [falling, single point] |
| CC1(C)NC(=O)N(CCOCCSc2ccccc2)C1=O | 23.1 µM [falling, single point] | -37.5 | 18.4 µM [falling, single point] |
| CN(C(=O)COC(=O)CNC(=O)CNC(=O)c1ccc(Cl)cc1Cl)c1ccccc1 | 22.4 µM [falling, single point] | -29.1 | – |
| CCOc1ccccc1N1CCN(CC(=O)NC(=O)NCc2ccco2)CC1 | 0.82 µM [falling, full curve, poor fit] | -8.55 | – |
| COc1ccccc1C(=O)COC(=O)Cc1c[nH]c2ccccc12 | 3.66 µM [falling, single point] | – | 3.26 µM [rising, single point] |
| COc1ccc2c(c1)c1nnc(SCC(=O)N3C(C)CCCC3C)nc1n2C (stereo not given) | 1.3 µM [falling, full curve] | -67.3 | 2.91 µM [falling, full curve] |
| Cc1ccc(N=C(NOC(=O)c2ccccc2)c2nonc2N)c(C)c1 | 0.0651 µM [falling, full curve, poor fit] | -11.5 | – |
| Cc1ccc2nc(N3CC(C)OC(C)C3)nc(-c3ccccc3)c2c1 (stereo not given) | 20.6 µM [rising, single point] | 12.8 | – |
| CCOC(=O)C(=NC1CCS(=O)(=O)C1)NNc1ccc(Br)cc1 (stereo not given) | 29.1 µM [rising, single point] | – | – |
| O=C(O)c1ccc(NS(=O)(=O)c2cccc(S(=O)(=O)c3ccc(Cl)c(Cl)c3)c2)cc1 | – | 8.26 | – |
| O=C(C[n+]1cc(-c2ccc(Cl)cc2)n2c1CCC2)Nc1nc(-c2ccccc2)cs1 | 0.184 µM [rising, full curve, poor fit] | 12.2 | – |
| C=CCN=C1NN=C(c2cc(C)n(CC=C)c2C)CS1 | – | 28.9 | – |
| CC1=C(C(=O)OC(C)C)C(c2ccc(F)cc2)NC(=O)N1 (stereo not given) | 11.6 µM [falling, partial curve] | -45.5 | 13 µM [falling, partial curve] |
| COc1ccc(Nc2ccc([N+](=O)[O-])cn2)cn1 | 10.3 µM [falling, partial curve, poor fit] | – | – |
| COCCN(C(=O)C1CCC1)c1nnc(-c2cccnc2)s1 | 6.51 µM [rising, full curve] | -11.7 | – |
| Cc1c(C)[n+](=O)c2c(n1[O-])C(Br)CCC2Br (stereo not given) | 29.1 µM [rising, single point] | 28.9 | – |

Grouped by structure: the entries above with two or more sulfur atoms

| SMILES | AC50 [1] | cell number change [%] | AC50 [2] |
| --- | --- | --- | --- |
| C/C(=N\Nc1nc(-c2ccccc2)cs1)c1cccs1 | 0.366 µM [rising, partial curve, poor fit] | -50 | 3.66 µM [falling, full curve, poor fit] |
| Cc1cc(C)nc(NS(=O)(=O)c2ccc(Br)s2)c1 | 0.92 µM [rising, full curve, poor fit] | -4.12 | 0.0058 µM [falling, full curve, poor fit] |
| O=C(O)c1ccc(NS(=O)(=O)c2cccc(S(=O)(=O)c3ccc(Cl)c(Cl)c3)c2)cc1 | – | 8.26 | – |

Next part:

| SMILES | AC50 [1] | cell number change [%] | AC50 [2] |
| --- | --- | --- | --- |
| COc1ccccc1OCCNC(=O)c1cc(F)c(F)cc1Cl | 11.6 µM [rising, partial curve] | -1.99 | – |
| Cn1cccc1C(=O)NC(=O)CSc1cccc[n+]1[O-] | – | -4.96 | – |
| Cn1c(=N)n(CC(=O)c2ccc(Cl)c(Cl)c2)c2ccccc21 | – | 40.5 | 14.6 µM [rising, partial curve, poor fit] |
| COc1ccc(C(=O)NCC(=O)NCC(=O)OCC(=O)c2ccc(C)cc2)cc1 | 2.91 µM [rising, single point] | – | – |
| Cc1nc(C(=O)NC2CC2)sc1C1(C)CC(c2ccccc2)=NO1 (stereo not given) | – | -0.349 | – |
| Cc1nc2c(cc1C(=O)N/N=C/c1ccc(O)c(O)c1)c(=O)n(C)c(=O)n2C | 0.0164 µM [rising, full curve, poor fit] | 13.5 | 2.91 µM [rising, partial curve] |
| CN(C(=O)COC(=O)c1cc(S(=O)(=O)N2CCOCC2)c(Cl)cc1Cl)C1CCS(=O)(=O)C1 (stereo not given) | 6.51 µM [falling, single point] | -38.7 | 6.51 µM [falling, single point] |
| CC(=O)Nc1ccc(NC(=O)COc2ccc([N+](=O)[O-])cc2)cc1 | – | -14 | 6.51 µM [falling, partial curve, poor fit] |
| CCC(C)[C@H](NC(=O)[C@@H]1Cc2ccccc2CN1)C(=O)Nc1ccc2c(c1)OCO2 (stereo not given in full) | 29.1 µM [rising, single point] | 1.14 | – |
| C=CCn1c(COc2cccc3ccc(C)nc23)nnc1SCC(N)=O | – | 128 | 20.6 µM [rising, partial curve] |
| CCCCCCCCCCOC(=O)Cn1c(COc2ccc(Cl)cc2)[n+](C)c2ccccc21 | 13 µM [falling, partial curve] | -76.3 | 9.2 µM [falling, partial curve] |
| CC(NC(=O)CCCCCNC(=O)N1CCn2c1nc1ccccc12)c1ccccc1 (stereo not given) | 16.4 µM [falling, single point] | -25.4 | – |
| CC(C)c1[nH]nc2c1C(c1cccnc1)C(C#N)=C(N)O2 (stereo not given) | – | -4.42 | – |
| N#CCCn1cc(C(=O)N2CCCCC2)c(-c2ccc([N+](=O)[O-])cc2)n1 | 0.092 µM [falling, full curve, poor fit] | 76 | – |
| Cc1ccc(C(=O)NCC(=O)NCC(=O)OCC(=O)c2ccc(F)cc2)cc1 | 1.03 µM [rising, full curve, poor fit] | 7.57 | – |
| O=C(c1ccc2nc(Cc3cccc(Cl)c3)oc2c1)N1CCC(CO)CC1 | 0.00651 µM [falling, full curve, poor fit] | 5.81 | – |
| O=C(NCCCN1CCOCC1)c1ccc(CS(=O)(=O)Cc2ccc(Cl)cc2)o1 | 16.4 µM [falling, partial curve] | -135 | 25.9 µM [falling, partial curve] |
| COc1cc(C(=O)NCCC(c2ccccc2)c2ccccc2)cc(OC)c1OC | 29.1 µM [falling, single point] | 7.77 | – |
